According to patent US20070021451A1, “Method for preventing or treating neurologic damage after spinal cord injury” (HAMAMATSU UNIVERSITY SCHOOL OF MEDICINE, priority 2005, published 2007):

Assay: Physiologic parameters (body weight, rectal temperature, mean arterial blood pressure) in rabbit model of spinal cord ischemia
Type: in vivo, New Zealand White rabbits
Protocol: Twenty-six male New Zealand White rabbits weighting 2.2 to 3.0 kg were used in this experiment. Spinal cord ischemia was induced by occluding the abdominal aorta with […] for 20 minutes just distal to the renal arteries. Surgical preparation was conducted according to the method described in the literature, Terada H. et. al., J. Thorac. Cardiovasc. Surg. 2001; 122: 979-85. A 24-gauge venous catheter was placed in the marginal ear vein for drug administration. The rabbits were anesthetized with intravenous sodium pentobarbital (25 mg/kg) and allowed to breathe spontaneously. Lidocaine (0.5%) was administered at the site of the skin incision as local anesthesia. The left common carotid artery was cannulated with a 24-gauge catheter for monitoring the arterial pressure. Core body temperature was continuously monitored with a rectal probe and was maintained at 38.5° C. with the aid of heating lamp. The infrarenal abdominal aorta was exposed through a transperitoneal approach. After systemic heparinization (200 U/kg), spinal cord ischemia was induced by occluding the abdominal aorta with […] for 20 minutes just distal to the renal arteries and just above the aortic bifurcation. Then, the […] released, and the flank was closed. […] The rabbits were assigned randomly to 1 of the 4 groups and subjected to the treatment of (1) above in the following manner. […]

Q: With `Cc1cc(-c2ccc(F)cc2)cc(OCCCCCN2CCCCC2)n1.Cl` [NS-7, 4-(4-Fluorophenyl)-2-methyl-6-(5-piperidinopentyloxy)pyridine hydrochloride] as the molecule, how does the Weight (Group A: NS-7 1 mg/kg i.v. 15 min before aortic occlusion) read?
A: 2.6 ± 0.2 kg

Q: What about the Weight (Group B: NS-7 1 mg/kg i.v. at the onset of reperfusion) of the same molecule?
A: 2.5 ± 0.2 kg
